PubChem BioAssay AID1259308 – NCATS – 2017

Screen: 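Candidate targets for better recombinant protein yield in mammalian cells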 (primary screen)
System: human HEK293 embryonic kidney cells stably expressing firefly luciferase (HEK-CMV-Luc2-Hygro)
Knock-down reagent: single siRNA against human genes, 0.8 pmol siRNA per well
Time to read-out: 72 h
Read-out: 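Luciferase light (ONE-Glo) measured on one replicate plate set and viability (CellTiter-Glo) on the other, scaled to a negative control siRNA, with robust z-scores and luciferase per cell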
Scale: total luciferase, z-score and total luciferase, % of control: higher = more reporter protein produced
Call rule: 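An siRNA counts as active if its total luciferase robust z-score exceeds 3; genes with two or more such siRNAs out of three were retested with fresh siRNAs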
Meaning of the calls: active = raised luciferase; inactive = no rise
The deposit covers about 59,000 reagents; this is a random part of them. Of all reagents, about 1,510 (2.6%) were called active. 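Calls use total luciferase alone and ignore viability, so some active siRNAs may act by altering cell number.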 Reagents against one gene are numbered here. Further read-outs or replicates are left out here.

MED24 (mediator complex subunit 24) #1 → total luciferase, z-score = -0.66; total luciferase, % of control = 68.8; call = inactive
MED24 (mediator complex subunit 24) #2 → total luciferase, z-score = -0.915; total luciferase, % of control = 63.7; call = inactive
MED24 (mediator complex subunit 24) #3 → total luciferase, z-score = -0.447; total luciferase, % of control = 73; call = inactive
SYT5 (synaptotagmin 5) #1 → total luciferase, z-score = -0.557; total luciferase, % of control = 70.8; call = inactive
SYT5 (synaptotagmin 5) #2 → total luciferase, z-score = 1.52; total luciferase, % of control = 112; call = inactive
SYT5 (synaptotagmin 5) #3 → total luciferase, z-score = -0.844; total luciferase, % of control = 65.1; call = inactive
HRK (harakiri, BCL2 interacting protein) #1 → total luciferase, z-score = -1.18; total luciferase, % of control = 58.4; call = inactive
HRK (harakiri, BCL2 interacting protein) #2 → total luciferase, z-score = 0.267; total luciferase, % of control = 87.2; call = inactive
HRK (harakiri, BCL2 interacting protein) #3 → total luciferase, z-score = 1; total luciferase, % of control = 102; call = inactive
TSGA13 (testis specific 13) #1 → total luciferase, z-score = -1.28; total luciferase, % of control = 56.5; call = inactive
TSGA13 (testis specific 13) #2 → total luciferase, z-score = 2.29; total luciferase, % of control = 127; call = inactive
TSGA13 (testis specific 13) #3 → total luciferase, z-score = 2.71; total luciferase, % of control = 136; call = inactive
RPS6KA3 (ribosomal protein S6 kinase A3) #1 → total luciferase, z-score = -0.896; total luciferase, % of control = 64.1; call = inactive
RPS6KA3 (ribosomal protein S6 kinase A3) #2 → total luciferase, z-score = -0.194; total luciferase, % of control = 78; call = inactive
RPS6KA3 (ribosomal protein S6 kinase A3) #3 → total luciferase, z-score = -1.06; total luciferase, % of control = 60.8; call = inactive
HMGN2P31 #1 → total luciferase, z-score = 0.414; total luciferase, % of control = 90.1; call = inactive
HMGN2P31 #2 → total luciferase, z-score = 0.1; total luciferase, % of control = 83.9; call = inactive
HMGN2P31 #3 → total luciferase, z-score = -0.423; total luciferase, % of control = 73.5; call = inactive
PSG1 (pregnancy specific beta-1-glycoprotein 1) #1 → total luciferase, z-score = 0.0724; total luciferase, % of control = 83.3; call = inactive
PSG1 (pregnancy specific beta-1-glycoprotein 1) #2 → total luciferase, z-score = 0.376; total luciferase, % of control = 89.4; call = inactive
PSG1 (pregnancy specific beta-1-glycoprotein 1) #3 → total luciferase, z-score = -1.55; total luciferase, % of control = 51.1; call = inactive
PHLDB2 (pleckstrin homology like domain family B member 2) #1 → total luciferase, z-score = -0.394; total luciferase, % of control = 74.1; call = inactive
PHLDB2 (pleckstrin homology like domain family B member 2) #2 → total luciferase, z-score = 0.112; total luciferase, % of control = 84.1; call = inactive
PHLDB2 (pleckstrin homology like domain family B member 2) #3 → total luciferase, z-score = 0.773; total luciferase, % of control = 97.3; call = inactive
POP7 (POP7 ribonuclease P/MRP subunit) #1 → total luciferase, z-score = -0.392; total luciferase, % of control = 74.1; call = inactive
POP7 (POP7 ribonuclease P/MRP subunit) #2 → total luciferase, z-score = -0.497; total luciferase, % of control = 72; call = inactive
POP7 (POP7 ribonuclease P/MRP subunit) #3 → total luciferase, z-score = 1.38; total luciferase, % of control = 109; call = inactive
VPS37B (VPS37B subunit of ESCRT-I) #1 → total luciferase, z-score = 0.891; total luciferase, % of control = 99.6; call = inactive
VPS37B (VPS37B subunit of ESCRT-I) #2 → total luciferase, z-score = -0.276; total luciferase, % of control = 76.4; call = inactive
VPS37B (VPS37B subunit of ESCRT-I) #3 → total luciferase, z-score = -0.832; total luciferase, % of control = 65.3; call = inactive
POLR2D (RNA polymerase II subunit D) #1 → total luciferase, z-score = -3.25; total luciferase, % of control = 17.2; call = inactive
POLR2D (RNA polymerase II subunit D) #2 → total luciferase, z-score = -2.94; total luciferase, % of control = 23.5; call = inactive
POLR2D (RNA polymerase II subunit D) #3 → total luciferase, z-score = -3.36; total luciferase, % of control = 15; call = inactive
